Data as given in PubChem BioAssay AID652248 (Drosophila RNAi Screening Center, 2013).
The whole screen tested 863 reagents; this is an unselected part. 32 of them (3.7%) were called active. 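Calls also used reproducibility and a similarity ranking whose scores are not deposited; many active genes show only modest elongated scores.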 A number with no mark means an inactive call. The numbers tell different reagents against one gene apart. Not all columns of the deposit are shown. Not stated in the record: the amount of reagent, the time to read-out.

- Test: 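Kinase and phosphatase regulators of cell lengthening and shape variety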 (primary screen)
- System: cultured Drosophila hemocytes
- Knock-down reagent: long dsRNA against Drosophila genes
- Measurement: 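Automated microscopy of stained actin, tubulin and nuclei; single-cell shape measures assigned to five reference shape types, giving a score per dsRNA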
- Scale: elongated score: higher = more elongated bipolar cells; normal round score: higher = more normal rounded cells
- Call rule: 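a gene counts as active when its knock-down clearly increases the elongated score; a low similarity score was then used to rank the actives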

Nek2 #1 scored elongated score, rep 1 = 0.79; elongated score, rep 2 = -0.21; normal round score, rep 1 = -1.04. Knock-down of Nek2 #2 came out at: elongated score, rep 1 = -0.33; normal round score, rep 1 = -3.28. Against Ptp52F (Protein tyrosine phosphatase 52F), the entry reads elongated score, rep 1 = 1.07; normal round score, rep 1 = -0.24. After knock-down of Cdk5 (Cyclin-dependent kinase 5) the results were elongated score, rep 1 = -0.06; normal round score, rep 1 = -0.32. aurB (aurora B) #1 showed elongated score, rep 1 = 1.22; normal round score, rep 1 = -8.92. aurB (aurora B) #2 scored elongated score, rep 1 = 0.82; normal round score, rep 1 = -8.61.

For alph (alphabet) #1, the values are elongated score, rep 1 = 1.86; normal round score, rep 1 = -2.24. Depletion of alph (alphabet) #2 resulted in: elongated score, rep 1 = 0.11; normal round score, rep 1 = -1.22. Against nonC (no-on-and-no-off transient C) #1 the deposit lists elongated score, rep 1 = -0.53; elongated score, rep 2 = 3.69; normal round score, rep 1 = -0.98. For nonC (no-on-and-no-off transient C) #2, the values are elongated score, rep 1 = 0.25; normal round score, rep 1 = 0.13. After knock-down of sdt (stardust) #1 the results were elongated score, rep 1 = 0.14; normal round score, rep 1 = 0.45. Against sdt (stardust) #2, the entry reads elongated score, rep 1 = -0.53; normal round score, rep 1 = 0.73.

sdt (stardust) #3 scored elongated score, rep 1 = -0.3; normal round score, rep 1 = 0.28. With knock-down of sdt (stardust) #4, the screen gave elongated score, rep 1 = -0.53; normal round score, rep 1 = 0.01. Against sdt (stardust) #5, the values are elongated score, rep 1 = -0.53; normal round score, rep 1 = -4.69. Against Lk6 (Lk6 kinase) #1 the deposit lists elongated score, rep 1 = -0.31; normal round score, rep 1 = -0.01. For Lk6 (Lk6 kinase) #2, the entry reads elongated score, rep 1 = -0.29; normal round score, rep 1 = -1.56. For Lk6 (Lk6 kinase) #3, the values are elongated score, rep 1 = -0.28; normal round score, rep 1 = 0.57.

Laid out differently: entries from further up
{"predicted target":"aurB (aurora B)","dsRNA no.":2,"elongated score, rep 1":0.82,"normal round score, rep 1":-8.61}
{"predicted target":"alph (alphabet)","dsRNA no.":1,"elongated score, rep 1":1.86,"normal round score, rep 1":-2.24}
{"predicted target":"alph (alphabet)","dsRNA no.":2,"elongated score, rep 1":0.11,"normal round score, rep 1":-1.22}

Next reagents follow.
After knock-down of p38a (p38a MAP kinase), the record shows elongated score, rep 1 = -0.53; normal round score, rep 1 = -0.44. Silencing of p38b (p38b MAP kinase) came out at: elongated score, rep 1 = -0.53; normal round score, rep 1 = -1.72. par-1 #1 scored elongated score, rep 1 = -0.11 (active); normal round score, rep 1 = -1.86. Against par-1 #2, the entry reads elongated score, rep 1 = 0.31 (active); normal round score, rep 1 = -1.72. par-1 #3 scored elongated score, rep 1 = 5.05 (active); normal round score, rep 1 = -3.77. par-1 #4 scored elongated score, rep 1 = -0.53 (active); normal round score, rep 1 = -0.5.

FER (FER tyrosine kinase) #1 scored elongated score, rep 1 = -0.36; normal round score, rep 1 = 0.52. FER (FER tyrosine kinase) #2 scored elongated score, rep 1 = -0.53; normal round score, rep 1 = -0.15. With knock-down of FER (FER tyrosine kinase) #3, the screen gave elongated score, rep 1 = 3.21; normal round score, rep 1 = -1.73. With knock-down of Gbs-70E (Glycogen binding subunit 70E) the results were elongated score, rep 1 = -0.41; normal round score, rep 1 = 0.12. Depletion of CG4945 #1 gave: elongated score, rep 1 = -0.22; normal round score, rep 1 = -0.07. For CG4945 #2 the deposit lists elongated score, rep 1 = 1.7; normal round score, rep 1 = -1.25.

For IKKepsilon (I-kappaB kinase epsilon), the entry reads elongated score, rep 1 = 0.02; normal round score, rep 1 = -1.3. slpr (slipper) #1 showed elongated score, rep 1 = 0.2; normal round score, rep 1 = 0.35. For slpr (slipper) #2, the entry reads elongated score, rep 1 = -0.53; normal round score, rep 1 = -0.58. Against Slik (Sterile20-like kinase) #1, the values are elongated score, rep 1 = 0.65 (active); normal round score, rep 1 = -1.4. Against Slik (Sterile20-like kinase) #2 the deposit lists elongated score, rep 1 = 3.95 (active); normal round score, rep 1 = -3.61.
